Patent publication US20030186863A1
No constants are given. Whether binding was seen depends on the method and setting. Some entries that bind do so weakly or less than the wild type.

Amino acid sequences for entries named in this document (tags omitted). Residues count along the entry.
UniProt P62993, residues 1-58: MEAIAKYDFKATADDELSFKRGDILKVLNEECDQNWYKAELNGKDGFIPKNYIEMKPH

molecular target: GST-Grb2 N-terminal SH3 (Grb2 N, aa 1-58) (UniProt P62993); assay: phage panning on GST-SH3, anti-phage ELISA

Question: With KWDSLLPALPPAFTVE as the binder, how does the binding read?
Answer: binds

Question: For RWDQVLPELPTSKGQI, which binding is on record?
Answer: binds

Question: For RFDFPLPTHPNLQKAH, which binding is on record?
Answer: binds

Question: For RLDSPLPALPPTVMQN, which binding is on record?
Answer: binds

Question: Which binding does the source give for RWGAPLPPLPEYSWST here?
Answer: binds

Question: How did the binding turn out when YWDMPLPRLPGEEPSL was run?
Answer: binds

Question: Which binding does the source give for RFDYNLPDVPLSLGTA here?
Answer: binds

Question: For TKKPNAPLPPLPAYMG, which binding is on record?
Answer: binds

Question: Which binding does the source give for KWDLDLPPEPMSLGNY here?
Answer: binds

Question: How did the binding turn out when YYQRPLPPLPLSHFES was run?
Answer: binds

Question: With YYRKPLPNLPRGQTDD as the binder, how does the binding read?
Answer: binds

Question: How did the binding turn out when YFDKPLPESPGALMSL was run?
Answer: binds

Question: How did the binding turn out when YFSRALPGLPERQEAH was run?
Answer: binds

Question: SLWDPLPPIPQSKTSV was tested. Which binding did it give?
Answer: binds

Question: For SYYDPLPKLPDPGDLG, which binding is on record?
Answer: binds

Question: Which binding does the source give for KLYYPLPPVPFKDTKH here?
Answer: binds

Question: For DPYDALPETPSMKASQ, which binding is on record?
Answer: binds

molecular target: GST-Nck middle SH3 (Nck M, aa 101-166) (UniProt P16333); assay: phage panning on GST-SH3, anti-phage ELISA

Question: Which binding does the source give for SRVVDGLAPPPPVRLSSLSR (peptide, not shown: large carriers; small tags and cut ends) [PXXP.NCK.T2.PP] here?
Answer: binds

Question: Which binding does the source give for SSISDYSRPPPPVRTLSLSR (peptide, not shown: large carriers; small tags and cut ends) [PXXP.NCK.T4.PP] here?
Answer: binds

Question: Which binding does the source give for SSLGVGWKPLPPMRTASLSR [PXXP.NCK.Q1/4.PP] here?
Answer: binds

Question: For SSVGFADRPRPPLRVESLSR (peptide, not shown: large carriers) [PXXP.NCK.Q2/3.PP.INC], which binding is on record?
Answer: binds

Question: For SSPYTGDVPIPPLRGASLSR (peptide, not shown: large carriers) [PXXP.NCK.R2.PP], which binding is on record?
Answer: binds

Question: How did the binding turn out when SSLMGSWPPVPPLRSDSLSR (peptide, not shown: large carriers) [PXXP.NCK.R3.PP] was run?
Answer: binds

Question: Which binding does the source give for SSIGEDTPPSPPTRRASLSR (peptide, not shown: large carriers) [PXXP.NCK.R4.PP] here?
Answer: binds

Question: With SRSLSEVSPKPPIRSVSLSR (peptide, not shown: large carriers) [PXXP.NCK.S1/4.PP] as the binder, how does the binding read?
Answer: binds

Question: For SSVSEGYSPPLPPRSTSLSR (peptide, not shown: large carriers) [PXXP.NCK.S2.PP.INC], which binding is on record?
Answer: binds

Question: SSSFTLAAPTPPTRSLSLSR (peptide, not shown: large carriers) [PXXP.NCK.S3.PP] was tested. Which binding did it give?
Answer: binds

Question: For SSPPYELPPRPPNRTVSLSR (peptide, not shown: large carriers; small tags and cut ends) [PXXP.NCK.T1.PP], which binding is on record?
Answer: binds
